Experimental data: article PMC7066179
No constants are given. Whether binding was seen depends on the method and setting. In cells and extracts the contact can be indirect. Some binding calls cover weakened binding; strength is not graded here.

By UniProt entry, the sequences of proteins in these tests, tags left out.
UniProt O14949: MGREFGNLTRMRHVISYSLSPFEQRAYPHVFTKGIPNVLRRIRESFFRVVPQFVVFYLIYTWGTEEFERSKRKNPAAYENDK

Target: UQCRQ-FLAG, transfected in HEK293T (UniProt O14949)
Experiment: co-IP; mitochondria of HEK293T transiently expressing UQCRQ-FLAG and BR-HA; FLAG immunoprecipitation as for the mouse mitochondria; immunoblot for BR-HA

BR-HA, transfected in HEK293T (from UniProt Q69YU5 1-71)
binding: binds
